The values below come from US11603352 (University of California, dated 2023).

Amino acid sequences for entries named in this document (tags omitted).
UniProt Q92905: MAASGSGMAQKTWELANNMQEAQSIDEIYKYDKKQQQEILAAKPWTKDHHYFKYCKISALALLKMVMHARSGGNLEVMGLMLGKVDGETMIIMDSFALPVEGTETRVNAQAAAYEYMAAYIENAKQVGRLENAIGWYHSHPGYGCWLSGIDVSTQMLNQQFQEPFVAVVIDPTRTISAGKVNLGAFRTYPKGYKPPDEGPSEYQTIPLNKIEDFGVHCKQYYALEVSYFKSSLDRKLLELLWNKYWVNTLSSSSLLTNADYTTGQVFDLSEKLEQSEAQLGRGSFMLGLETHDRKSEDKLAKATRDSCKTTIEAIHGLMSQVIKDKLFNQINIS
UniProt P61201: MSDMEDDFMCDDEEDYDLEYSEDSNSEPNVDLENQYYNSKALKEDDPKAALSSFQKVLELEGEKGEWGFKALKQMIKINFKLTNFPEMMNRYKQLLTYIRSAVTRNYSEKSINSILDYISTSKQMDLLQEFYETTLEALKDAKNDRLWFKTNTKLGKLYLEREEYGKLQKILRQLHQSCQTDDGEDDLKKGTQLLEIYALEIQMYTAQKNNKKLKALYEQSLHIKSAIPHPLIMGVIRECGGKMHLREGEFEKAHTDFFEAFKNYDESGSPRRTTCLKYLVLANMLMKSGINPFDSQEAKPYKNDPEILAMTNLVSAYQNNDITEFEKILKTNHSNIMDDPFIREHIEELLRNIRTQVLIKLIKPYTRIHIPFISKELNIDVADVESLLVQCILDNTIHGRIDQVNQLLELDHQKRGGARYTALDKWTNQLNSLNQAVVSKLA
UniProt Q13098: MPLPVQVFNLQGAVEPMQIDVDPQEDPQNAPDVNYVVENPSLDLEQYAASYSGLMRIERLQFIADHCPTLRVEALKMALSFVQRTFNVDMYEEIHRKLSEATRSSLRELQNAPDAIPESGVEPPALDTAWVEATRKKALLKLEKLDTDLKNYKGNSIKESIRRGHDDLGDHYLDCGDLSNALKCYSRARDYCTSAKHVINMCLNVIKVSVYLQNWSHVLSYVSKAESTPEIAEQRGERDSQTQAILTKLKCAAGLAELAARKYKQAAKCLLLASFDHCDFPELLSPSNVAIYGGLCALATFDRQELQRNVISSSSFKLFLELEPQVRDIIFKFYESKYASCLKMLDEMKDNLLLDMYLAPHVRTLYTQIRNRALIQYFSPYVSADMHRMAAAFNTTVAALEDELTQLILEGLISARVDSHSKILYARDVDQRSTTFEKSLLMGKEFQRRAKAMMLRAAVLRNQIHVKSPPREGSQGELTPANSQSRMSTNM

These are yes or no findings as the source states them, for the method shown. Some entries that bind do so weakly or less than the wild type.

The target of assay [1] is CSN5 (subunit 5 of the human COP9 signalosome) (human) (UniProt Q92905). The experiment in a line: PRM quantitation of DHSO cross-links; increased CSN/CSNn ratio.
In assay [2] the target is CSN2 (subunit 2 of the human COP9 signalosome) (human) (UniProt P61201). The assay is described as above.
For assay [3], the target named is CSN1 (subunit 1 of the human COP9 signalosome) (human) (UniProt Q13098). Kind of assay: integrative structure of CSN from cross-links.

For the substance “CSN1 (subunit 1 of the human COP9 signalosome) (from UniProt Q13098 1-491)”, the binding result in assay [1] and in assay [2] was “binds” in each case. As for “CSN2 (subunit 2 of the human COP9 signalosome) (from UniProt P61201 1-443)”, in assay [3], the binding entry is “binds”.
